Reference: PubChem BioAssay AID493246 (Drosophila RNAi Screening Center, 2011)

- Assay: 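Genes fly cells need to grow and stay alive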 (primary screen)
- Cell system: Drosophila Kc and S2R+ cells
- Reagent: long dsRNA against Drosophila genes
- Read-out: 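Cell number per well after knock-down, printed as raw plate values; calls were based on per-plate z-scores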
- Direction: Kc cell number and S2R+ cell number: higher = more cells remaining
- Call rule: 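Active when the per-plate z-score of cell number is 3 or more in the direction of fewer cells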
The deposit covers about 21,000 reagents; this is a random part of those that have a named target and a result. Of all reagents, 429 (2%) are marked active. 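Values are raw and not normalised between plates; calls rest on per-plate z-scores that were not deposited.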 Unmarked entries are inactive. The numbers tell different reagents against one gene apart. No sequences are given here. Not given: the amount of reagent, the time to read-out.

| gene | reagent no. | Kc cell number, rep 1 | Kc cell number, rep 2 | S2R+ cell number, rep 1 | S2R+ cell number, rep 2 |
| --- | --- | --- | --- | --- | --- |
| CG34032 (retired record) | 1 | 1.60e6 | 1.84e6 | 1.09e6 | 1.27e6 |
| apolpp | 1 | 4.86e5 | – | 8.90e5 | – |
| CG12118 | 1 | 5.91e5 | – | 8.99e5 | – |
| fwd | 1 | 1.55e6 | 1.54e6 | 1.17e6 | 1.29e6 |
| CG30380 | 1 | 1.46e6 | 1.58e6 | 1.02e6 | 1.11e6 |
| Rcd4 | 1 | 1.55e6 | 1.60e6 | 1.32e6 | 1.42e6 |
| wgn | 1 | 1.62e6 | 1.66e6 | 1.01e6 | 1.17e6 |
| Rim | 1 | 1.48e6 | 1.60e6 | 9.87e5 | 9.91e5 |
| Rim | 2 | 1.06e6 (active) | 1.17e6 | 6.06e5 | 5.89e5 |
| Rim | 3 | 1.53e6 | 1.57e6 | 1.24e6 | 1.23e6 |
| Rim | 4 | 1.49e6 | 1.42e6 | 1.10e6 | 1.24e6 |
| PAN2 | 1 | 1.40e6 | 1.43e6 | 1.25e6 | 1.26e6 |
| Wdr92 | 1 | 1.33e6 | 1.45e6 | 1.26e6 | 1.32e6 |
| Hr78 | 1 | 1.47e6 | 1.58e6 | 1.20e6 | 1.25e6 |
| GstT3 | 1 | 1.45e6 | 1.46e6 | 1.05e6 | 1.14e6 |
| RpL6 | 1 | 1.03e6 (active) | 1.09e6 | 6.63e5 | 7.81e5 |
| CG4271 | 1 | 1.81e6 | 1.83e6 | 1.07e6 | 1.18e6 |

Hits, of those listed so far:
| gene | reagent no. | Kc cell number, rep 1 | Kc cell number, rep 2 | S2R+ cell number, rep 1 | S2R+ cell number, rep 2 |
| --- | --- | --- | --- | --- | --- |
| Rim | 2 | 1.06e6 (active) | 1.17e6 | 6.06e5 | 5.89e5 |
| RpL6 | 1 | 1.03e6 (active) | 1.09e6 | 6.63e5 | 7.81e5 |

The results go on.
| gene | reagent no. | Kc cell number, rep 1 | Kc cell number, rep 2 | S2R+ cell number, rep 1 | S2R+ cell number, rep 2 |
| --- | --- | --- | --- | --- | --- |
| CG34404 | 1 | 1.31e6 | 1.44e6 | 1.31e6 | 1.45e6 |
| CG34404 | 2 | 1.55e6 | 1.64e6 | 1.31e6 | 1.42e6 |
| sowi | 1 | 1.52e6 | 1.69e6 | 1.22e6 | 1.29e6 |
| CG6712 | 1 | 1.51e6 | 1.63e6 | 1.40e6 | 1.35e6 |
| CG31784 | 1 | 1.40e6 | 1.46e6 | 9.25e5 | 1.09e6 |
| CG10347 | 1 | 1.51e6 | 1.43e6 | 1.05e6 | 1.08e6 |
| btl | 1 | 1.55e6 | 1.71e6 | 1.38e6 | 1.62e6 |
| CG13398 | 1 | 1.60e6 | 1.62e6 | 1.25e6 | 1.49e6 |
| CG5556 | 1 | 1.75e6 | 1.85e6 | 1.15e6 | 1.27e6 |
| Akt | 1 | 1.46e6 | 1.51e6 | 1.17e6 | 1.21e6 |
| Toll-7 | 1 | 1.61e6 | 1.60e6 | 1.16e6 | 1.32e6 |
| wdp | 1 | 1.25e6 | 1.32e6 | 1.10e6 | 1.08e6 |
| Tpi | 1 | 5.09e5 | – | 8.60e5 | – |
| CG10508 | 1 | 1.64e6 | 1.73e6 | 1.34e6 | 1.37e6 |
| CG10508 | 2 | 1.67e6 | 1.62e6 | 1.42e6 | 1.50e6 |
| CG7707 | 1 | 1.66e6 | 1.87e6 | 1.37e6 | 1.43e6 |
| CG31560 | 1 | 1.67e6 | 1.79e6 | 1.36e6 | 1.57e6 |
| mei-41 | 1 | 1.41e6 | 1.43e6 | 1.02e6 | 1.14e6 |
| CG13403 | 1 | 1.51e6 | 1.50e6 | 1.03e6 | 1.10e6 |
| CG11791 | 1 | 1.31e6 | 1.54e6 | 1.18e6 | 1.27e6 |
| Jon25Bii | 1 | 1.66e6 | 1.54e6 | 1.14e6 | 1.32e6 |
| CG31100 | 1 | 1.49e6 | 1.53e6 | 1.40e6 | 1.47e6 |
| CG31100 | 2 | 1.56e6 | 1.61e6 | 1.35e6 | 1.47e6 |
